PubChem BioAssay AID1259308 | NCATS – 2017
The deposit covers about 59,000 reagents; below is a part drawn at random. Of all reagents, about 1,510 (2.6%) were called active. 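Calls use total luciferase alone and ignore viability, so some active siRNAs may act by altering cell number.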 Entries without a mark were called inactive. The numbers tell different reagents against one gene apart. Further read-outs or replicates are left out here.

Screen: 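Knock-downs that increase output of a recombinant reporter protein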 (primary screen)
Cells: human HEK293 embryonic kidney cells stably expressing firefly luciferase (HEK-CMV-Luc2-Hygro)
Knock-down reagent: single siRNA against human genes, 0.8 pmol siRNA per well
Duration: 72 h
Measurement: 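Reporter luminescence and viable-cell signal on separate replicate plates, given as percent of non-targeting control and median/MAD z-scores, plus per-cell luciferase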
Scale: total luciferase, z-score and total luciferase, % of control: higher = more reporter protein produced
Call rule: 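An siRNA counts as active if its total luciferase robust z-score exceeds 3; genes with two or more such siRNAs out of three were retested with fresh siRNAs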
Meaning of the calls: active = raised luciferase; inactive = no rise

WASHC5 (WASH complex subunit 5) #1 showed total luciferase, z-score -0.143; total luciferase, % of control 79. WASHC5 (WASH complex subunit 5) #2 scored total luciferase, z-score 0.33; total luciferase, % of control 88.4. Silencing of WASHC5 (WASH complex subunit 5) #3 gave: total luciferase, z-score -1.29; total luciferase, % of control 56.3. Knock-down of DNAH8 (dynein axonemal heavy chain 8) #1 gave: total luciferase, z-score 1.66; total luciferase, % of control 115. Against DNAH8 (dynein axonemal heavy chain 8) #2, the entry reads total luciferase, z-score 0.319; total luciferase, % of control 88.2. Depletion of DNAH8 (dynein axonemal heavy chain 8) #3 came out at: total luciferase, z-score 1.53; total luciferase, % of control 112.

With knock-down of OVOS1BP (ovostatin 1B, pseudogene) #1, the record shows total luciferase, z-score -0.665; total luciferase, % of control 68.7. For OVOS1BP (ovostatin 1B, pseudogene) #2, the entry reads total luciferase, z-score 2.74; total luciferase, % of control 136. Depletion of OVOS1BP (ovostatin 1B, pseudogene) #3 came out at: total luciferase, z-score -1.3; total luciferase, % of control 56. PRICKLE1 (prickle planar cell polarity protein 1) #1 scored total luciferase, z-score 0.239; total luciferase, % of control 86.6. Knock-down of PRICKLE1 (prickle planar cell polarity protein 1) #2 resulted in: total luciferase, z-score -0.288; total luciferase, % of control 76.2. Against PRICKLE1 (prickle planar cell polarity protein 1) #3, the entry reads total luciferase, z-score 0.511; total luciferase, % of control 92.

HES5 (hes family bHLH transcription factor 5) #1 showed total luciferase, z-score 1.17; total luciferase, % of control 105. HES5 (hes family bHLH transcription factor 5) #2 showed total luciferase, z-score -0.382; total luciferase, % of control 74.3. For HES5 (hes family bHLH transcription factor 5) #3 the deposit lists total luciferase, z-score 0.548; total luciferase, % of control 92.8.

Taken from above:
WASHC5 (WASH complex subunit 5) #2, total luciferase, % of control: 88.4
Value of DNAH8 (dynein axonemal heavy chain 8) #3 in “total luciferase, z-score”: 1.53

Next results follow:
After knock-down of MTMR6 (myotubularin related protein 6) #1, the record shows total luciferase, z-score 2.97; total luciferase, % of control 141. MTMR6 (myotubularin related protein 6) #2 gave total luciferase, z-score 0.286; total luciferase, % of control 87.6. With knock-down of MTMR6 (myotubularin related protein 6) #3, the screen gave total luciferase, z-score -1.58; total luciferase, % of control 50.4. Silencing of ESRP1 (epithelial splicing regulatory protein 1) #1 came out at: total luciferase, z-score -1.18; total luciferase, % of control 58.4. Depletion of ESRP1 (epithelial splicing regulatory protein 1) #2 resulted in: total luciferase, z-score 0.506; total luciferase, % of control 91.9. ESRP1 (epithelial splicing regulatory protein 1) #3 scored total luciferase, z-score -1.98; total luciferase, % of control 42.4.

LINC01148 (long independently transcribed non-coding RNA 1148) #1 gave total luciferase, z-score -0.212; total luciferase, % of control 77.7. Depletion of LINC01148 (long independently transcribed non-coding RNA 1148) #2 gave: total luciferase, z-score -1.45; total luciferase, % of control 53.1. After knock-down of LINC01148 (long independently transcribed non-coding RNA 1148) #3, the screen gave total luciferase, z-score -0.845; total luciferase, % of control 65.1. Depletion of CD99L2 (CD99 molecule like 2) #1 gave: total luciferase, z-score 0.872; total luciferase, % of control 99.2. After knock-down of CD99L2 (CD99 molecule like 2) #2, the screen gave total luciferase, z-score -1.5; total luciferase, % of control 52. CD99L2 (CD99 molecule like 2) #3 showed total luciferase, z-score -0.598; total luciferase, % of control 70.

With knock-down of PHF21B (PHD finger protein 21B) #1, the record shows total luciferase, z-score 0.672; total luciferase, % of control 95.3. After knock-down of PHF21B (PHD finger protein 21B) #2 the results were total luciferase, z-score 2.76; total luciferase, % of control 137. PHF21B (PHD finger protein 21B) #3 scored total luciferase, z-score -0.627; total luciferase, % of control 69.4. MIR9-2HG (MIR9-2 host gene) #1 gave total luciferase, z-score -0.804; total luciferase, % of control 65.9. After knock-down of MIR9-2HG (MIR9-2 host gene) #2 the results were total luciferase, z-score -0.66; total luciferase, % of control 68.8. With knock-down of MIR9-2HG (MIR9-2 host gene) #3, the screen gave total luciferase, z-score 0.941; total luciferase, % of control 101.

RHOXF2 (Rhox homeobox family member 2) #1 scored total luciferase, z-score 1.59; total luciferase, % of control 114. Silencing of RHOXF2 (Rhox homeobox family member 2) #2 gave: total luciferase, z-score -0.713; total luciferase, % of control 67.7. RHOXF2 (Rhox homeobox family member 2) #3 scored total luciferase, z-score 1.22; total luciferase, % of control 106. With knock-down of DEFB124 (defensin beta 124) #1, the screen gave total luciferase, z-score -0.628; total luciferase, % of control 69.4. For DEFB124 (defensin beta 124) #2, the values are total luciferase, z-score 0.254; total luciferase, % of control 86.9. Against DEFB124 (defensin beta 124) #3, the entry reads total luciferase, z-score -0.573; total luciferase, % of control 70.5.

Depletion of ACTR6 (actin related protein 6) #1 came out at: total luciferase, z-score -0.164; total luciferase, % of control 78.6. With knock-down of ACTR6 (actin related protein 6) #2, the record shows total luciferase, z-score 1.08; total luciferase, % of control 103. For ACTR6 (actin related protein 6) #3 the deposit lists total luciferase, z-score -0.553; total luciferase, % of control 70.9.
